# Test results: doi:10.1101/2021.08.12.456108
# Chains of the proteins cited; added tags and fusions are not shown.
# UniProt P98170: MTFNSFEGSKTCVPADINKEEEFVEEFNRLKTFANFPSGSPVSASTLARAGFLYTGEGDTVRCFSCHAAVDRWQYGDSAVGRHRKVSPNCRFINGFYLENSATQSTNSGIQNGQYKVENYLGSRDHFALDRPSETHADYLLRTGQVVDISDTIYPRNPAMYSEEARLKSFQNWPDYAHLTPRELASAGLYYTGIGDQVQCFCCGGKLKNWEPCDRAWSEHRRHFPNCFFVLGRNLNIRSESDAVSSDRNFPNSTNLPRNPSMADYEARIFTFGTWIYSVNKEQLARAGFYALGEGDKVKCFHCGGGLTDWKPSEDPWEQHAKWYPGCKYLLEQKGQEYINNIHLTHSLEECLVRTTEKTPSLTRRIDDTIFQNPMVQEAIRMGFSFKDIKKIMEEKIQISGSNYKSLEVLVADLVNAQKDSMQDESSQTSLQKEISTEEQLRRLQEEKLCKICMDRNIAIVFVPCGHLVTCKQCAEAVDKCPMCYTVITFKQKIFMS
# UniProt Q93009: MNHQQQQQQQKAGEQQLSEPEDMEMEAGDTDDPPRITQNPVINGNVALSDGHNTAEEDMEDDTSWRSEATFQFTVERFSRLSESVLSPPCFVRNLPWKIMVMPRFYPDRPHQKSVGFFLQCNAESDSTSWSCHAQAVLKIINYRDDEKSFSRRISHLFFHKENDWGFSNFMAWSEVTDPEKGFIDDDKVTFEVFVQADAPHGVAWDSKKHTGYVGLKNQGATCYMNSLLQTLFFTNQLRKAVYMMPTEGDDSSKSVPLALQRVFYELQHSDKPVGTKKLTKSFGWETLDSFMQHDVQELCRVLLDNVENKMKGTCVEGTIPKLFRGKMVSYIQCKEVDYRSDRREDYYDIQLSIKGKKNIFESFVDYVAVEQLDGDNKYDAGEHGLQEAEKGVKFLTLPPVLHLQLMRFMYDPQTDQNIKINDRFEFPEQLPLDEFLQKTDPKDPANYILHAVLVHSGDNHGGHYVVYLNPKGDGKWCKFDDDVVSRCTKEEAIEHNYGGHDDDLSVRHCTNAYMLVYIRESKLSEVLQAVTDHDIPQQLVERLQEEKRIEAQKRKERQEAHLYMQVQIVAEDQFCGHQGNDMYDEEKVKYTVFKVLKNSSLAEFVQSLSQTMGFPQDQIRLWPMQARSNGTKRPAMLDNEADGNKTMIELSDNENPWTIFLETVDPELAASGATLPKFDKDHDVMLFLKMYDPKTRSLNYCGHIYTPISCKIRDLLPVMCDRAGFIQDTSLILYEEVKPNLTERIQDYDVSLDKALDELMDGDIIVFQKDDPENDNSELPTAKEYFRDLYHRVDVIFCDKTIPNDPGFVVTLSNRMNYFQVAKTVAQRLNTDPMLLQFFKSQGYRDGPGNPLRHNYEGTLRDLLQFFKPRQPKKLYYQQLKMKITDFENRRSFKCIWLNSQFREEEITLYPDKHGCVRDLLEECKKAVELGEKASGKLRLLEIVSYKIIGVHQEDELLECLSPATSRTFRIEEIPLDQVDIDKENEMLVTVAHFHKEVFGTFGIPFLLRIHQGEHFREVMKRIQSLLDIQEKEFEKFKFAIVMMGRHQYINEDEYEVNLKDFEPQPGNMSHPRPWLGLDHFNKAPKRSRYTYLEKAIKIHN
# Tests used:
# GST-XIAP = GST-XIAP (UniProt P98170); assay: affinity purification with mass spectrometry
# GST-USP7 = GST-USP7 (UniProt Q93009); assay: affinity purification with mass spectrometry
binding (GST-XIAP),binding (GST-USP7),Substance
binds,,endogenous USP7 of HEK cells (from UniProt Q93009 1-1102) (enzyme)
,binds,endogenous XIAP (X-linked IAP) of HEK cells (from UniProt P98170 1-497)

# No constants are given. Whether binding was seen depends on the method and setting. Binding seen in cells or lysates may run through a third protein. A yes stands for co-enrichment or nearness to the bait. Other partners may have been found.
